Experimental data from PubChem BioAssay AID504444 (National Center for Advancing Translational Sciences (NCATS), 2011).
Hit rate of the full screen: of about 360,000 compounds, about 7,500 (2.1%) were called active. Inconclusive means that the source gave no clear call. Such entries were picked first, then a sample of the others. Calls come from the whole dose curve; as a rule, active = well fitted inhibition curve with a large enough effect; inconclusive = small, poorly fitted or top-dose-only effect, or effect the other way; inactive = flat fitted curve, though single readings scatter. A potency beside an inconclusive call is a rough fit, not a confirmed value.

Test: Nrf2 qHTS screen for inhibitors; note: nearly all actives have a fitted effect of over 60% in size
Conditions: A549 ARE-Fluc reporter, luciferase luminescence, 18-24 h; activity change, negative = inhibition: at 46 µM (top of the series)
Summary of the method: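 A549 ARE_Fluc cells (5000/well, 5% FBS OPTI-MEM) pre-incubated 2 h, then treated with compounds 18-24 h at 37C/5% CO2 in concentration-response. CellTiter-Fluor viability read first; BugLite luciferase luminescence after 15 min at room temperature gives Nrf2 activity.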
% is set by controls: 0 for no effect and ±100 for the full control effect; potency is the fitted concentration of half-maximal effect.

SMILES | Potency | activity change, negative = inhibition
Cc1ccc(NC(=O)c2nc(S(=O)(=O)Cc3ccc(F)cc3)ncc2Cl)cc1C | inactive | 
CCOC(=O)c1c(C)[nH]c(C(=O)COC(=O)c2ccco2)c1C | inactive | 
Cn1cccc1C(=O)NCCc1ccccc1 | inconclusive: 1.64 µM [activator, partial curve, poor fit] | 
Cc1cccc(C(=O)Nc2ccc3nc(SCC(=O)N4CCCC4)sc3c2)c1 | active: 18.4 µM | 
CCOC(=O)C1=C(COC(=O)CSc2ccc(C)cc2C)NC(=O)NC1C (stereo not drawn) | inactive | 
Cc1cc(C(=O)NCCc2ccc(Cl)cc2)c2c(C)nn(-c3ccccc3)c2n1 | inconclusive: 29.1 µM [activator, single point] | 
C(=N\N1CCN(Cc2ccccc2)CC1)/c1ccccc1 | inconclusive: 25.9 µM [activator, single point] | 
CCC1CCCCN1C(=O)c1cc(COc2ccc(-n3cncn3)cc2)on1 (stereo not drawn) | inconclusive: 25.9 µM [falling, single point] | 
Cc1ccccc1-c1csc(N)n1 | inconclusive: 16.4 µM [activator, single point] | 
COc1n[nH]c(C(=O)Nc2nc3ccccc3s2)c1[N+](=O)[O-] | inconclusive: 8.2 µM [activator, partial curve] | 
COc1cc(CNC(=O)c2ccc(NC(=O)N3CCCCc4ccccc43)cc2)cc(OC)c1OC | inconclusive: 13 µM [falling, single point] | 
COc1ccc(C(=O)c2c3ccc(OC)cc3[n+]([O-])n2Cc2ccc(C(N)=O)cc2)cc1 | inconclusive: 6.51 µM [falling, single point] | 
CCN1CCC(NC(=O)Nc2ccccc2C(=O)OC)CC1 | inactive | 
CCOC(=O)c1sc2nccc(N(C)C)c2c1N=CNOCc1ccccc1 | inconclusive: 29.1 µM [falling, single point] | 
Cc1cc(C)n(-c2ccn(Cc3ccc(Cl)cc3Cl)c(=O)n2)n1 | inconclusive: 6.51 µM [falling, single point] | 
COc1cc([N+](=O)[O-])ccc1NC(=O)NNC(=O)c1sccc1C | inactive | 
NC(=O)c1c(NC(=O)CCCn2cnc([N+](=O)[O-])n2)sc2c1CCCC2 | inactive | 
CCn1c(CNc2ccc(C)cc2)nnc1SCC(N)=O | inconclusive: 7.31 µM [falling, single point] | 
CC(C)CC(C(=O)NC(C)(C)C)N(Cc1ccccc1Cl)C(=O)c1snc(C(N)=O)c1N (stereo not drawn) | inconclusive: 29.1 µM [falling, single point] | 
CCc1nnc(NC(=O)c2oc3ccccc3c2COC(C)C)s1 | inconclusive: 6.51 µM [falling, single point] | 
COCCn1c(SCC(=O)Nc2cc(C)cc(C)c2)nc2ccccc2c1=O | inconclusive: 10.3 µM [falling, partial curve] | 
COCc1ccc(C(=O)N2CCC(CCC(=O)Nc3cccc(C)c3)CC2)s1 | inconclusive: 23.1 µM [falling, single point] | 

As entered above.
Under Potency, `CCOC(=O)c1sc2nccc(N(C)C)c2c1N=CNOCc1ccccc1` has inconclusive: 29.1 µM [falling, single point]
Under Potency, `Cc1cc(C)n(-c2ccn(Cc3ccc(Cl)cc3Cl)c(=O)n2)n1` has inconclusive: 6.51 µM [falling, single point]

The results go on:

SMILES | Potency | activity change, negative = inhibition
CCOc1ccc(C(=O)N2CCc3cc(OC)c(OC)cc3C2COc2ccc3c(C)cc(=O)oc3c2)cc1OCC (stereo not drawn) |  | inactive: -17.4% [at 9.27 µM]
CS(=O)(=O)Nc1cccc2cccnc12 | inactive | 
O=C(/C(=N\Nc1ccc(Br)cc1)Sc1nnnn1-c1ccccc1)c1ccccc1 | inconclusive: 23.1 µM [falling, single point] | 
Cc1nn(Cc2ccc(Cl)c(Cl)c2)c(C)c1NC(=O)c1cc(-c2ccc3c(c2)OCO3)on1 | active: 11.6 µM | 
COc1ccc(N(C(=O)Cn2nnc(-c3ccc(F)cc3)n2)C(C)C(=O)NC2CCCC2)cc1 (stereo not drawn) | inconclusive: 6.51 µM [falling, single point] | 
COc1ccccc1NC(=O)C(Sc1ccccc1)c1ccccc1 (stereo not drawn) | inconclusive: 29.1 µM [falling, single point] | 
CCOc1ccc(CNC(=O)CCCn2c(=O)c3cccn3c3cccnc32)cc1 | inactive | 
C/C(=N\NC(=O)c1cccnc1)c1ccc(OC2OCCOC2Oc2ccc(/C(C)=N/NC(=O)c3cccnc3)cc2)cc1 (stereo not drawn) | inconclusive: 29.1 µM [falling, single point] | 
O=C1[C@H]2[C@@H](c3ccc(F)cc3)N3C(=O)N(c4cccc(Cl)c4)C(=O)[C@@]3(Cc3ccccc3)[C@H]2C(=O)N1C1CCCCC1 | inconclusive: 6.51 µM [activator, full curve] | 
O=C(NCC1COc2ccccc2O1)C1CCN(S(=O)(=O)c2ccc(Cl)cc2)CC1 (stereo not drawn) | inconclusive: 32.6 µM [falling, single point] | 
Oc1ccccc1-c1nc2cnccn2c1Nc1ccc(Cl)cc1 |  | inactive: 2.35% [at 9.27 µM]
O=C(Nc1nncs1)c1ccc2c(c1)OCO2 | inconclusive: 20.6 µM [activator, partial curve] | 
O=C(CSc1nc(-c2cccs2)cc(C(F)(F)F)n1)Nc1cc(OCC(F)(F)C(F)F)cc([N+](=O)[O-])c1 | inconclusive: 16.4 µM [falling, single point] | 
CN(C(=O)CN1C(=O)NC2(CCc3ccccc32)C1=O)C1CCCCC1 (stereo not drawn) | inconclusive: 18.4 µM [activator, single point] | 
O=C(CSc1ccc(-c2ccncc2)nn1)N1CCCCC1 | inconclusive: 18.4 µM [falling, partial curve] | 
CCOC(=O)C1CCN(S(=O)(=O)c2ccc(-c3cc(C(F)(F)F)n(C)n3)s2)CC1 | inactive | 
Cc1nnc(C)c2c(C)n(C(C)c3ccccc3)c(C)c12 (stereo not drawn) | inconclusive: 25.9 µM [falling, partial curve, poor fit] | 
COc1ccc(CN2CCN(Cc3ccc(Br)cc3)CC2)c(OC)c1OC | inconclusive: 20.6 µM [falling, single point] | 
CCOc1cc(/C=N/NC(=O)c2cc3c(ccc4ccccc43)o2)ccc1O | inconclusive: 20.6 µM [falling, single point] | 
CC(=O)n1c2c(c3ccccc31)OC(N)=C(C#N)C2c1ccc(C(C)C)cc1 (stereo not drawn) | inconclusive: 3.66 µM [activator, full curve] | 
Cc1ccc(C)c(OCCN2CCOCC2)c1 | inconclusive: 6.51 µM [falling, single point] | 
